Patent publication US20100092562A1, “SUSTAINED-RELEASE DRUG DELIVERY COMPOSITIONS AND METHODS” (priority 2002, published 2010)
At least one compound was matched to its structure with a doubt left.

Experiment: Release profile of base vs salt forms of drugs in liquid controlled release compositions, USP Apparatus 2
Type: physicochemical
Conditions: liquid sustained release compositions, 65% W/W sucrose; stored 3 weeks at room temperature

For COc1ccc2c3c1O[C@H]1C(=O)CC[C@H]4[C@@H](C2)N(C)CC[C@]314 (relative stereo) [hydrocodone, morphinan-6-one, 4,5-epoxy-3-methoxy-17-methyl-,(5)-, [R—(R*,R*)]-2,3-dihydroxybutane-dioate (1:1), hydrate (2:5)], which “rate of release of salt forms vs base forms” value is on record?
The value was “comparable”.
